# In the supplement of paper PMC8728848:
# Some of the results follow.
# B1: PX14351B-bth-512-36-512 (Bacteroides thetaiotaomicron) (protein)
# chain: ASETQQWKTLEDTRSALMGVYGLTRAALADNNTHWICGDLRKGDFTVYKRSDLQAVSDNELNKPYDLLKKVSNWRRFYAVINAASVFMEKAPRTVELDRSYSEQNLKYDIAQVRALRAFAYFYMVRIWGDVPLVTYSYDNGTFPSMPRTDAQTVLSYAKAELLTAIEDLPYQYGTQTNLYYGSYGAQWQGKLFNKLSAYSVLAHICAWQGNYAEAETYSAFIIDHASEINAKYTSIADLTSETGLFYSNASVKGSRILGFNFAHNDNEATQSGHLEQLTLAYPLVQKSYPEIYISKDSLFSIFTNFDDLRFGIIDTIKYSSYYVQNLNEETPVFSKIKIIQDGSAKDNDFGVFGSSIVFTRLEDITLLRAEALCALNRSTEAVSYLNMIRTNRGLREVSFKKDFGNNRESLIAEIFEERRRELMGEGWRWYDLVRRQKLMKDNEAFLRLISSGGIYWPVSEDIITANSQIEQNEFWK
# Tests used:
# Test in all cases: glycan array binding signal (z-score within array); higher = stronger binding
# Details in all cases: glycan notation: IUPAC condensed, linker removed
# [1] = target: Fuc(a1-2)[Gal(a1-3)]Gal
# Summary of the method: (§1)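 From the Consortium for Functional Glycomics database, 3228 arrays were curated, keeping only those whose protein sequence was available. Binding is given as a within-array Z-score averaged across arrays sharing a protein sequence and across linkers. Negative Z-scores can be read as non-binding.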
# [2] = target: Fuc(a1-2)[Gal(a1-3)]Gal(b1-3)GalNAc
# Summary of the method: as §1
# [3] = target: Fuc(a1-2)[Gal(a1-3)]Gal(b1-3)GalNAc(b1-3)Gal(a1-4)Gal(b1-4)Glc
# Summary of the method: as §1
# [4] = target: Fuc(a1-2)[Gal(a1-3)]Gal(b1-3)GlcNAc
# Summary of the method: as §1
# [5] = target: Fuc(a1-2)[Gal(a1-3)]Gal(b1-3)GlcNAc(b1-2)Man(a1-3)[Fuc(a1-2)[Gal(a1-3)]Gal(b1-3)GlcNAc(b1-2)Man(a1-6)]Man(b1-4)GlcNAc(b1-4)GlcNAc
# Summary of the method: as §1
# [6] = target: Fuc(a1-2)[Gal(a1-3)]Gal(b1-3)GlcNAc(b1-2)Man(a1-3)[Fuc(a1-2)[Gal(a1-3)]Gal(b1-3)GlcNAc(b1-2)Man(a1-6)]Man(b1-4)GlcNAc(b1-4)[Fuc(a1-6)]GlcNAc
# Summary of the method: as §1
# [7] = target: Fuc(a1-2)[Gal(a1-3)]Gal(b1-3)GlcNAc(b1-3)GalNAc
# Summary of the method: as §1
# [8] = target: Fuc(a1-2)[Gal(a1-3)]Gal(b1-3)GlcNAc(b1-6)GalNAc
# Summary of the method: as §1
# [9] = target: Fuc(a1-2)[Gal(a1-3)]Gal(b1-4)Glc
# Summary of the method: as §1
# [10] = target: Fuc(a1-2)[Gal(a1-3)]Gal(b1-4)GlcNAc
# Summary of the method: as §1
# [11] = target: Fuc(a1-2)[Gal(a1-3)]Gal(b1-4)GlcNAc(b1-2)Man
# Summary of the method: as §1
# [12] = target: Fuc(a1-2)[Gal(a1-3)]Gal(b1-4)GlcNAc(b1-2)Man(a1-3)[Fuc(a1-2)[Gal(a1-3)]Gal(b1-4)GlcNAc(b1-2)Man(a1-6)]Man(b1-4)GlcNAc(b1-4)GlcNAc
# Summary of the method: as §1
# [13] = target: Fuc(a1-2)[Gal(a1-3)]Gal(b1-4)GlcNAc(b1-2)Man(a1-3)[Fuc(a1-2)[Gal(a1-3)]Gal(b1-4)GlcNAc(b1-2)Man(a1-6)]Man(b1-4)GlcNAc(b1-4)[Fuc(a1-6)]GlcNAc
# Summary of the method: as §1
# [14] = target: Fuc(a1-2)[Gal(a1-3)]Gal(b1-4)GlcNAc(b1-3)GalNAc
# Summary of the method: as §1
# [15] = target: Fuc(a1-2)[Gal(a1-3)]Gal(b1-4)GlcNAc(b1-3)[Fuc(a1-2)[Gal(a1-3)]Gal(b1-4)GlcNAc(b1-6)]GalNAc
# Summary of the method: as §1
# [16] = target: Fuc(a1-2)[Gal(a1-3)]Gal(b1-4)GlcNAc(b1-6)GalNAc
# Summary of the method: as §1
# [17] = target: Fuc(a1-2)[Gal(a1-3)]Gal(b1-4)[Fuc(a1-3)]Glc
# Summary of the method: as §1
# [18] = target: Fuc(a1-2)[Gal(a1-3)]Gal(b1-4)[Fuc(a1-3)]GlcNAc
# Summary of the method: as §1
# [19] = target: Fuc(a1-2)[Gal(a1-3)]Gal(b1-4)[Fuc(a1-3)]GlcNAc(b1-3)GalNAc
# Summary of the method: as §1
# [20] = target: Fuc(a1-2)[Gal(a1-4)]Gal(b1-4)GlcNAc
# Summary of the method: as §1
# [21] = target: Fuc(a1-2)[GalNAc(a1-3)]Gal
# Summary of the method: as §1
# [22] = target: Fuc(a1-2)[GalNAc(a1-3)]Gal(b1-3)GalNAc(a1-3)[Fuc(a1-2)]Gal(b1-4)GlcNAc
# Summary of the method: as §1
# [23] = target: Fuc(a1-2)[GalNAc(a1-3)]Gal(b1-3)GalNAc(b1-3)Gal(a1-4)Gal(b1-4)Glc
# Summary of the method: as §1
# [24] = target: Fuc(a1-2)[GalNAc(a1-3)]Gal(b1-3)GlcNAc
# Summary of the method: as §1
# [25] = target: Fuc(a1-2)[GalNAc(a1-3)]Gal(b1-3)GlcNAc(b1-2)Man(a1-3)[Fuc(a1-2)[GalNAc(a1-3)]Gal(b1-3)GlcNAc(b1-2)Man(a1-6)]Man(b1-4)GlcNAc(b1-4)GlcNAc
# Summary of the method: as §1
# [26] = target: Fuc(a1-2)[GalNAc(a1-3)]Gal(b1-3)GlcNAc(b1-2)Man(a1-3)[Fuc(a1-2)[GalNAc(a1-3)]Gal(b1-3)GlcNAc(b1-2)Man(a1-6)]Man(b1-4)GlcNAc(b1-4)[Fuc(a1-6)]GlcNAc
# Summary of the method: as §1
# [27] = target: Fuc(a1-2)[GalNAc(a1-3)]Gal(b1-3)GlcNAc(b1-3)GalNAc
# Summary of the method: as §1
# [28] = target: Fuc(a1-2)[GalNAc(a1-3)]Gal(b1-3)GlcNAc(b1-6)GalNAc
# Summary of the method: as §1
# [29] = target: Fuc(a1-2)[GalNAc(a1-3)]Gal(b1-4)Glc
# Summary of the method: as §1
# [30] = target: Fuc(a1-2)[GalNAc(a1-3)]Gal(b1-4)GlcNAc
# Summary of the method: as §1
# [31] = target: Fuc(a1-2)[GalNAc(a1-3)]Gal(b1-4)GlcNAc(b1-2)Man
# Summary of the method: as §1
# [32] = target: Fuc(a1-2)[GalNAc(a1-3)]Gal(b1-4)GlcNAc(b1-2)Man(a1-3)[Fuc(a1-2)[GalNAc(a1-3)]Gal(b1-4)GlcNAc(b1-2)Man(a1-6)]Man(b1-4)GlcNAc(b1-4)[Fuc(a1-6)]GlcNAc
# Summary of the method: as §1
# [33] = target: Fuc(a1-2)[GalNAc(a1-3)]Gal(b1-4)GlcNAc(b1-3)Gal(b1-4)GlcNAc
# Summary of the method: as §1
# [34] = target: Fuc(a1-2)[GalNAc(a1-3)]Gal(b1-4)GlcNAc(b1-3)Gal(b1-4)GlcNAc(b1-3)Gal(b1-4)GlcNAc
# Summary of the method: as §1
# [35] = target: Fuc(a1-2)[GalNAc(a1-3)]Gal(b1-4)GlcNAc(b1-3)GalNAc
# Summary of the method: as §1
# [36] = target: Fuc(a1-2)[GalNAc(a1-3)]Gal(b1-4)GlcNAc(b1-3)[Fuc(a1-2)[GalNAc(a1-3)]Gal(b1-4)GlcNAc(b1-6)]GalNAc
# Summary of the method: as §1
# [37] = target: Fuc(a1-2)[GalNAc(a1-3)]Gal(b1-4)GlcNAc(b1-6)GalNAc
# Summary of the method: as §1
# [38] = target: Fuc(a1-2)[GalNAc(a1-3)]Gal(b1-4)[Fuc(a1-3)]GlcNAc
# Summary of the method: as §1
# [39] = target: Fuc(a1-2)[GalNAc(a1-3)]Gal(b1-4)[Fuc(a1-3)]GlcNAc(b1-3)GalNAc
# Summary of the method: as §1
# [40] = target: Fuc(a1-2)[GalNAc(a1-4)]Gal(b1-4)GlcNAc
# Summary of the method: as §1
# [41] = target: Fuc(a1-2)[GalNAc(b1-3)]Gal
# Summary of the method: as §1
# [42] = target: Fuc(a1-3)GlcNAc
# Summary of the method: as §1
# [43] = target: Fuc(a1-3)[Gal(b1-4)]Glc6S
# Summary of the method: as §1
# [44] = target: Fuc(a1-3)[Gal(b1-4)]GlcNAc
# Summary of the method: as §1
# [45] = target: Fuc(a1-3)[Gal(b1-4)]GlcNAc(b1-2)Man
# Summary of the method: as §1
binder,measurement,setting,value
B1,glycan array binding signal (z-score),[1],0.049
same,glycan array binding signal (z-score),[2],-0.199
same,glycan array binding signal (z-score),[3],-0.255
same,glycan array binding signal (z-score),[4],-0.3
same,glycan array binding signal (z-score),[5],-0.082
same,glycan array binding signal (z-score),[6],-0.191
same,glycan array binding signal (z-score),[7],-0.353
same,glycan array binding signal (z-score),[8],0.184
same,glycan array binding signal (z-score),[9],0.071
same,glycan array binding signal (z-score),[10],-0.132
same,glycan array binding signal (z-score),[11],-0.08
same,glycan array binding signal (z-score),[12],1.1
same,glycan array binding signal (z-score),[13],0.011
same,glycan array binding signal (z-score),[14],-0.323
same,glycan array binding signal (z-score),[15],-0.265
same,glycan array binding signal (z-score),[16],-0.127
same,glycan array binding signal (z-score),[17],-0.106
same,glycan array binding signal (z-score),[18],-0.209
same,glycan array binding signal (z-score),[19],-0.22
same,glycan array binding signal (z-score),[20],0.298
same,glycan array binding signal (z-score),[21],-0.2
same,glycan array binding signal (z-score),[22],-0.095
same,glycan array binding signal (z-score),[23],-0.339
same,glycan array binding signal (z-score),[24],-0.152
same,glycan array binding signal (z-score),[25],-0.016
same,glycan array binding signal (z-score),[26],-0.383
same,glycan array binding signal (z-score),[27],-0.281
same,glycan array binding signal (z-score),[28],-0.144
same,glycan array binding signal (z-score),[29],-0.178
same,glycan array binding signal (z-score),[30],-0.349
same,glycan array binding signal (z-score),[31],0.104
same,glycan array binding signal (z-score),[32],-0.245
same,glycan array binding signal (z-score),[33],-0.267
same,glycan array binding signal (z-score),[34],-0.189
same,glycan array binding signal (z-score),[35],0.134
same,glycan array binding signal (z-score),[36],-0.298
same,glycan array binding signal (z-score),[37],0.339
same,glycan array binding signal (z-score),[38],-0.051
same,glycan array binding signal (z-score),[39],0.703
same,glycan array binding signal (z-score),[40],-0.226
same,glycan array binding signal (z-score),[41],-0.406
same,glycan array binding signal (z-score),[42],-0.313
same,glycan array binding signal (z-score),[43],-0.067
same,glycan array binding signal (z-score),[44],0.093
same,glycan array binding signal (z-score),[45],-0.233

# Random excerpt: two entries already listed.
binder,measurement,setting,value
B1,glycan array binding signal (z-score),[22],-0.095
same,glycan array binding signal (z-score),[34],-0.189
